{"sequences": {"note": "By UniProt entry, the sequences of proteins in these tests, tags left out.", "UniProt Q9QZL0": "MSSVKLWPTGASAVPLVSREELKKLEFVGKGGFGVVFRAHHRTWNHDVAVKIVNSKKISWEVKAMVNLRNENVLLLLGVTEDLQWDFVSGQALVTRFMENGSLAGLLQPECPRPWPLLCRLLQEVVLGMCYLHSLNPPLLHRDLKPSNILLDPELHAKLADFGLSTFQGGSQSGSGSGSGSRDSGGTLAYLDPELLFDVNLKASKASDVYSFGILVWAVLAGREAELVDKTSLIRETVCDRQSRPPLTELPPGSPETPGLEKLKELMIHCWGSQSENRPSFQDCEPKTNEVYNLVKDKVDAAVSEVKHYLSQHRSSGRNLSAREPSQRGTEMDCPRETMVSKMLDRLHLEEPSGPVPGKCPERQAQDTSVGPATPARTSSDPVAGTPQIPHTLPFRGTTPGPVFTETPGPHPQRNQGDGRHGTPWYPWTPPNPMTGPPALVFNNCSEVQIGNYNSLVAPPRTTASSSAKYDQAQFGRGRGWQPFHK"}, "source": "paper PMC12629989", "target": "T1, Z-DNA-binding protein 1 (mouse (endogenous in MEFs)) (UniProt Q9QY24)", "T1 sequence": "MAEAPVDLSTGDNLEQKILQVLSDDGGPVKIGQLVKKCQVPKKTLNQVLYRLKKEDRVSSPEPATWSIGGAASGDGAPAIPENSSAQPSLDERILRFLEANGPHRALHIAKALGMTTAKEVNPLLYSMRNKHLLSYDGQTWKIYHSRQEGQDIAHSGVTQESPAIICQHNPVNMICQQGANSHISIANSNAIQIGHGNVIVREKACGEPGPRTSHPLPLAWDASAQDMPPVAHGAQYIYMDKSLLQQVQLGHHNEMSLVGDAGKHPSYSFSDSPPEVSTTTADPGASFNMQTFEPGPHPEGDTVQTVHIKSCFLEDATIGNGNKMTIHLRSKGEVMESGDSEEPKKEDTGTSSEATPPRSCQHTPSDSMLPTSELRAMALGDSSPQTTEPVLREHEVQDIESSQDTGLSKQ", "assay": "co-IP; anti-ZBP1 antibody on G-Sepharose beads, lysates of immortalized Mlkl-/-, Fadd-/-Mlkl-/- and Casp8-/-Mlkl-/- MEFs, basal or treated with DMXAA, C-178, TNF, Z-VAD-FMK and BV6 for 48 h; overnight at 4 °C; washes with 150 mM NaCl, Tris-HCl pH 7.4, 5% glycerol, 0.5% Triton X-100; immunoblot", "note": "Results are given in words; binding and its absence hold for the method and conditions named. Binding seen in cells or lysates may run through a third protein. Some results given as binding are weak or reduced against the parent protein; the word gives no strength."}
{"substance": "receptor-interacting serine/threonine-protein kinase 3 (from UniProt Q9QZL0 1-486)", "values": [{"measurement": "binding", "value": "binds"}]}
